The results in this text go back to publication PMC11653680.

The chains behind the UniProt entries cited, without tags or fusion partners. Residues count along the entry.
UniProt Q9D1D6, residues 33-245: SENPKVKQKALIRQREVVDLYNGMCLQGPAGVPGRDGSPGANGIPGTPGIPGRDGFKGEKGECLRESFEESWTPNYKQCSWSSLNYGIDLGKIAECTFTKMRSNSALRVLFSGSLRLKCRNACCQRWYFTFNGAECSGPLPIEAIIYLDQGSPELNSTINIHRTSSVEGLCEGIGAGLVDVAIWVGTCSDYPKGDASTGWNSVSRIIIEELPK

These are yes or no findings as the source states them, for the method shown. Binding seen in cells or lysates may run through a third protein. Some results given as binding are weak or reduced against the parent protein; the word gives no strength.

Test [1] concerns the target Epidermal growth factor receptor (EGFR), as in the GST pull-down (UniProt Q01279). The test is described as follows: pull-down; GST pull-down of CTHRC1 and EGFR; which partner carried GST and the conditions are not told in the text shown.
In test [2] the target is Epidermal growth factor receptor (EGFR), as in the cellular co-immunoprecipitation (UniProt Q01279). The test is described as follows: co-IP; cellular co-immunoprecipitation of CTHRC1 and EGFR, IP followed by immunoblotting; cells and antibodies not told in the text shown. (Immunoblotting shows a protein as a band on a membrane.)

Regarding “Collagen triple helix repeat containing 1 (CTHRC1), as in the GST pull-down (from UniProt Q9D1D6 33-245)”, the binding result in test [1] is “binds”.

For “Collagen triple helix repeat containing 1 (CTHRC1), as in the cellular co-immunoprecipitation (from UniProt Q9D1D6 33-245)”, the binding result in test [2] was “binds”.
